We go through four substances from PMC3782503.

Amino acid sequences for entries named in this document (tags omitted). Residues count along the entry.
UniProt P15311: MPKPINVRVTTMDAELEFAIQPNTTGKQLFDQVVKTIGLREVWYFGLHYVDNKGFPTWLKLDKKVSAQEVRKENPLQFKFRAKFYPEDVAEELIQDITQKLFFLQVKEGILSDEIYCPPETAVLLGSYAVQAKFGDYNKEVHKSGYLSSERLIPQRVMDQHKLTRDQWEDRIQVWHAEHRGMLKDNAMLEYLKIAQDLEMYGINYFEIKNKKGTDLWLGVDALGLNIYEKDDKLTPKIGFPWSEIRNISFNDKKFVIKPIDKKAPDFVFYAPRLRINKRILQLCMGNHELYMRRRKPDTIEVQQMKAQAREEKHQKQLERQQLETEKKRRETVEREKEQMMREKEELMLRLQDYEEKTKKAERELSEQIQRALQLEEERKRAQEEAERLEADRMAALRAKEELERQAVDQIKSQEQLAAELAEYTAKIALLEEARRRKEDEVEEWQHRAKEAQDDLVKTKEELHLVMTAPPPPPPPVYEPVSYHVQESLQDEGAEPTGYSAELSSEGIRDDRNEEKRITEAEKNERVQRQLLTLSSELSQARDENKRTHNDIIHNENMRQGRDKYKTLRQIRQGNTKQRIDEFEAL
UniProt P19634: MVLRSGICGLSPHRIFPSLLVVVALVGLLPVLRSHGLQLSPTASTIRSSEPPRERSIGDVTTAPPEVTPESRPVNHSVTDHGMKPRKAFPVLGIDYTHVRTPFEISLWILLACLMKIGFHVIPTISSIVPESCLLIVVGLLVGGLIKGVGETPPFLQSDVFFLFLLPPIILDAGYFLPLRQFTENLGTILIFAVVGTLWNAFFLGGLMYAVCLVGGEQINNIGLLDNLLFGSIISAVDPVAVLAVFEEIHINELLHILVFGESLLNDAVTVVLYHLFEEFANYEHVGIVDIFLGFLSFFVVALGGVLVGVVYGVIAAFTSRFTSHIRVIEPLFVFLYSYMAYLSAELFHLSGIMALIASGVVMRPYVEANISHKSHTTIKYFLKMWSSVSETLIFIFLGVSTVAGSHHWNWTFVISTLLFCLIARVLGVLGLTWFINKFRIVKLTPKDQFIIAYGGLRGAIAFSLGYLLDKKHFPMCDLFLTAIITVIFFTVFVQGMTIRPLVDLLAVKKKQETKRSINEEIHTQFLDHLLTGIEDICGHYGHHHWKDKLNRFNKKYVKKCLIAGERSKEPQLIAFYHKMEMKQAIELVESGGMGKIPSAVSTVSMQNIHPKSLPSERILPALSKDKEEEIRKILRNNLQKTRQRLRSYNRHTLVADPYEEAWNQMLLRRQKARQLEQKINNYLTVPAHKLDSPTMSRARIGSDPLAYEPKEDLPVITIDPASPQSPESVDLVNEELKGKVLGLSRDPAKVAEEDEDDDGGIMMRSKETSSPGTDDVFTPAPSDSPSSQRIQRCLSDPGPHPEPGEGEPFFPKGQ
UniProt P31323: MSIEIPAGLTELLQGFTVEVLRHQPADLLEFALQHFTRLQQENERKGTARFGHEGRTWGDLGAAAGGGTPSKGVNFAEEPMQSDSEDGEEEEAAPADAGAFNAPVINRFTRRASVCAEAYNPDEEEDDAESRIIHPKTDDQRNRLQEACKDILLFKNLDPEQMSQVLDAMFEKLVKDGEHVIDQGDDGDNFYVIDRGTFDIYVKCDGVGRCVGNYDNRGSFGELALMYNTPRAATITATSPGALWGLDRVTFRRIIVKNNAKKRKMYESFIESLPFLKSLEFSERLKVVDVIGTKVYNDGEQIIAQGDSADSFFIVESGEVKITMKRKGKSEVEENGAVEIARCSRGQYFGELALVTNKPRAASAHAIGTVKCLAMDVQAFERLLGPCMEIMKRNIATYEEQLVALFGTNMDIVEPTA
UniProt P16070, residues 21-742: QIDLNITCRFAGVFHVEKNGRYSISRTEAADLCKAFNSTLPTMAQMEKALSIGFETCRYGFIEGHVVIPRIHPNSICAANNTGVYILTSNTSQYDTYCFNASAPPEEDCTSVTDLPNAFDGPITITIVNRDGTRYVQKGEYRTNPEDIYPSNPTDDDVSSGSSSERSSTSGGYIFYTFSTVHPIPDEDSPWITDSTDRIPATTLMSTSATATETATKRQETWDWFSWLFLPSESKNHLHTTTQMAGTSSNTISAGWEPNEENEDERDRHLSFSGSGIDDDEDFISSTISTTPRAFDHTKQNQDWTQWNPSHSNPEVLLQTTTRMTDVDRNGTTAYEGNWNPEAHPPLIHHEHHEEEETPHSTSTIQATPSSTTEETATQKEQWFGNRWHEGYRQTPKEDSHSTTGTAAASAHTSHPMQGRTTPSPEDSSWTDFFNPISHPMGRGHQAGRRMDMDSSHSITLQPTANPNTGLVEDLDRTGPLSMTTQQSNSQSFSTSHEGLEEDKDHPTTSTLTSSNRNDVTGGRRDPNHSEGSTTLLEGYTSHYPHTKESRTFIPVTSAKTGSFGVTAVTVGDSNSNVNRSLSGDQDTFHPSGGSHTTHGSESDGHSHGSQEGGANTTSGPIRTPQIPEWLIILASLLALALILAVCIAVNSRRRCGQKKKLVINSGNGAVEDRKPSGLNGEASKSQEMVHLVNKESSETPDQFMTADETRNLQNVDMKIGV

Results are given in words; binding and its absence hold for the method and conditions named. In cells and extracts the contact can be indirect. Some entries that bind do so weakly or less than the wild type.

Assay in all cases: co-IP; about 300 µg protein of the membrane or invadopodia fraction of MDA-MB-231 cells plated 24 hr on 2% cross-linked gelatin; 1 µg anti-NHE1, anti-p-ezrin or anti-ezrin, 1 hour at 4°C, then Protein A/G PLUS-Agarose overnight; buffer 50 mM Tris pH 7.5, 150 mM NaCl, 1% NP-40, 0.5% sodium deoxycholate; 4 washes; Western blot
A general note: Immunoblotting shows a protein as a band on a membrane.

The target of experiment [1] is total ezrin (human (endogenous in MDA-MB-231)) (UniProt P15311).
Experiment [2] has as its target ezrin phosphorylated at T567 (human (endogenous in MDA-MB-231)) (UniProt P15311).
In experiment [3] the target is Na+/H+ exchanger type 1 (NHE1) (human (endogenous in MDA-MB-231)) (UniProt P19634).

For the substance “Na+/H+ exchanger type 1 (NHE1) (from UniProt P19634 1-815)”, the binding entry in experiment [1] was “binds weakly”; in experiment [2], “binds”.
For “RIIß subunit of PKA (from UniProt P31323 1-418)”, the binding entry in experiment [3], in experiment [1] and in experiment [2] was “binds” throughout.
For the substance “ezrin phosphorylated at T567 (from UniProt P15311 1-586)”, the binding result in experiment [3] was “binds”.
With “CD44 (from UniProt P16070 21-742) (receptor)”, the binding entry in experiment [3] is recorded as “binds”.
